No constants are given. Whether binding was seen depends on the method and setting. Binding seen in cells or lysates may run through a third protein. Some binding calls cover weakened binding; strength is not graded here. Tags and fused reporters may be left off the sequences shown.
T1: GSK2-GST (rice) (UniProt Q60EZ2)
T1 sequence: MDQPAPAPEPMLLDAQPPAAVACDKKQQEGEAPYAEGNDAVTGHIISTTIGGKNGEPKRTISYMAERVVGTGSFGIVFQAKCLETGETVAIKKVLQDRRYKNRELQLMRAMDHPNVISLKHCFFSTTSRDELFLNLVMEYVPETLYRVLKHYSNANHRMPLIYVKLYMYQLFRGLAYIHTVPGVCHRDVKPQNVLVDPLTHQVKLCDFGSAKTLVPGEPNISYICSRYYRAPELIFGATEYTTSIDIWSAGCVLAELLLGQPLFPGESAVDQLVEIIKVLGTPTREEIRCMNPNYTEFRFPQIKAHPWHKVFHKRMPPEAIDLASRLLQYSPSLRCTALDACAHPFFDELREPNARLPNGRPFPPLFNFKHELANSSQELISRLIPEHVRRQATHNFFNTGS

T2: OML4-MYC (rice) (UniProt Q64M78)
T2 sequence: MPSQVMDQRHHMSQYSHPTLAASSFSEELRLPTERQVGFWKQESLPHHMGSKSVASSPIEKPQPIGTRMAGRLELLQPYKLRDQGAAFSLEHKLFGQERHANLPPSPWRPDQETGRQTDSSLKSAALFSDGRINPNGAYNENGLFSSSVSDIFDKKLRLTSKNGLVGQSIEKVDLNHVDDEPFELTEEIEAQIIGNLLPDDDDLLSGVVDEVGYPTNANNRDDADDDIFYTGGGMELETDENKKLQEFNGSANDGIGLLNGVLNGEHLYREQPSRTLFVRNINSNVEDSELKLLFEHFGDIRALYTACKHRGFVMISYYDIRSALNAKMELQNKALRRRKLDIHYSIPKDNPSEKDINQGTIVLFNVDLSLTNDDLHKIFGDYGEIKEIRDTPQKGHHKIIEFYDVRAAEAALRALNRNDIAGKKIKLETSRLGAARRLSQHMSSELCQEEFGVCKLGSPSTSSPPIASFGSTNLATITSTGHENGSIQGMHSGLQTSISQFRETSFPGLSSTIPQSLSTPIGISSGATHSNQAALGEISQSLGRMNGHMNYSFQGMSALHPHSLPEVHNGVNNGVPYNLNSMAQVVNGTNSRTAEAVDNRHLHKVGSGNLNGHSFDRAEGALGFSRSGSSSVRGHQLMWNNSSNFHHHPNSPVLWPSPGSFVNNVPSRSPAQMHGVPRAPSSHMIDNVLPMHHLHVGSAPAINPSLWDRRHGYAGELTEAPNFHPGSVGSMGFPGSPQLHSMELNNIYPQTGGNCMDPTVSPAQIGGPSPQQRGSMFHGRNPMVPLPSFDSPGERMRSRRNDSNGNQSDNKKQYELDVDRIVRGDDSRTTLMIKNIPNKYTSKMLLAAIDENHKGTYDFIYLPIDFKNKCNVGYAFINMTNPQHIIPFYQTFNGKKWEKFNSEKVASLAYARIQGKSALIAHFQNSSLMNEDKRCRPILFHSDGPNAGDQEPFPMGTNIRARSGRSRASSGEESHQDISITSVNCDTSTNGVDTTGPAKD


Legend:
[1] = target: T1, GSK2-GST (rice); experiment: in vitro pull-down, GSK2-GST pulled down by OML4-MBP, immunoblot with anti-GST
[2] = target: T1, GSK2-GST (rice); experiment: in vitro pull-down on MBP beads, immunoblot with anti-GST
[3] = target: T2, OML4-MYC (rice); experiment: co-immunoprecipitation with MYC beads from N. benthamiana leaves, blots with anti-MYC and anti-GFP
[4] = target: T2, OML4-MYC (rice); experiment: co-immunoprecipitation with anti-MYC beads, blots with anti-MYC or anti-GFP

binding [1] | binding [2] | binding [3] | binding [4] | Binder
binds | binds | – | – | OML4-MBP (protein, not shown: large carriers) MPSQVMDQRHHMSQYSHPTLAASSFSEELRLPTERQVGFWKQESLPHHMGSKSVASSPIEKPQPIGTRMAGRLELLQPYKLRDQGAAFSLEHKLFGQERHANLPPSPWRPDQETGRQTDSSLKSAALFSDGRINPNGAYNENGLFSSSVSDIFDKKLRLTSKNGLVGQSIEKVDLNHVDDEPFELTEEIEAQIIGNLLPDDDDLLSGVVDEVGYPTNANNRDDADDDIFYTGGGMELETDENKKLQEFNGSANDGIGLLNGVLNGEHLYREQPSRTLFVRNINSNVEDSELKLLFEHFGDIRALYTACKHRGFVMISYYDIRSALNAKMELQNKALRRRKLDIHYSIPKDNPSEKDINQGTIVLFNVDLSLTNDDLHKIFGDYGEIKEIRDTPQKGHHKIIEFYDVRAAEAALRALNRNDIAGKKIKLETSRLGAARRLSQHMSSELCQEEFGVCKLGSPSTSSPPIASFGSTNLATITSTGHENGSIQGMHSGLQTSISQFRETSFPGLSSTIPQSLSTPIGISSGATHSNQAALGEISQSLGRMNGHMNYSFQGMSALHPHSLPEVHNGVNNGVPYNLNSMAQVVNGTNSRTAEAVDNRHLHKVGSGNLNGHSFDRAEGALGFSRSGSSSVRGHQLMWNNSSNFHHHPNSPVLWPSPGSFVNNVPSRSPAQMHGVPRAPSSHMIDNVLPMHHLHVGSAPAINPSLWDRRHGYAGELTEAPNFHPGSVGSMGFPGSPQLHSMELNNIYPQTGGNCMDPTVSPAQIGGPSPQQRGSMFHGRNPMVPLPSFDSPGERMRSRRNDSNGNQSDNKKQYELDVDRIVRGDDSRTTLMIKNIPNKYTSKMLLAAIDENHKGTYDFIYLPIDFKNKCNVGYAFINMTNPQHIIPFYQTFNGKKWEKFNSEKVASLAYARIQGKSALIAHFQNSSLMNEDKRCRPILFHSDGPNAGDQEPFPMGTNIRARSGRSRASSGEESHQDISITSVNCDTSTNGVDTTGPAKD
– | – | binds | binds | GSK2-GFP (enzyme, not shown: large carriers) MDQPAPAPEPMLLDAQPPAAVACDKKQQEGEAPYAEGNDAVTGHIISTTIGGKNGEPKRTISYMAERVVGTGSFGIVFQAKCLETGETVAIKKVLQDRRYKNRELQLMRAMDHPNVISLKHCFFSTTSRDELFLNLVMEYVPETLYRVLKHYSNANHRMPLIYVKLYMYQLFRGLAYIHTVPGVCHRDVKPQNVLVDPLTHQVKLCDFGSAKTLVPGEPNISYICSRYYRAPELIFGATEYTTSIDIWSAGCVLAELLLGQPLFPGESAVDQLVEIIKVLGTPTREEIRCMNPNYTEFRFPQIKAHPWHKVFHKRMPPEAIDLASRLLQYSPSLRCTALDACAHPFFDELREPNARLPNGRPFPPLFNFKHELANSSQELISRLIPEHVRRQATHNFFNTGS
